Results from the supplement of paper PMC10331698.
± gives the standard deviation of the averaged measurements. Small differences around the control level are noise.

Columns and labels:
Assay in all cases: level (log10 ratio to DMSO vehicle control); higher = higher biomarker level / cell amount than vehicle control
[1] = compound: C=C(C)C(=O)OCCC(F)(F)C(F)(F)C(F)(F)C(F)(F)C(F)(C(F)(F)F)C(F)(F)F [(Perfluoro-5-methylhexyl)ethyl 2-methylprop-2-enoate]; settings: in DMSO
Protocol: (§1)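 BioMAP Diversity Plus panel of 12 human primary cell co-culture systems (3C, 4H, LPS, SAg, BT, BF4T, BE3C, CASM3C, HDF3CGF, KF3CT, MyoF, Mphg). Compounds were added 1 h before stimulation and left for 24 h (MyoF 48 h; BT 72 h for soluble read-outs or 6 d for IgG). Biomarkers were read by ELISA, cytotoxicity by SRB, PBMC viability and proliferation by Alamar Blue. Each well value was divided by the mean of 8 DMSO control wells on the same plate and log10 transformed; duplicate blinded samples were tested at 4 concentrations.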

[2] = compound: C=C(C)C(=O)OCCC(F)(F)C(F)(F)C(F)(F)C(F)(F)C(F)(F)C(F)(F)C(F)(F)C(F)(F)F [8:2 Fluorotelomer methacrylate]; settings: in DMSO
Protocol: as §1

[3] = compound: COC(=O)CCC(F)(F)C(F)(F)C(F)(F)C(F)(F)F [Methyl 2H,2H,3H,3H-perfluoroheptanoate]; settings: 2200 nM; in DMSO
Protocol: as §1

[4] = compound: FC(F)(F)C(F)(F)C(F)(F)C(F)(F)C(F)(F)CCI [1-Iodo-1H,1H,2H,2H-perfluoroheptane]; settings: 2200 nM; in DMSO
Protocol: as §1

[5] = compound: NC(=O)C(F)(F)C(F)(F)C(F)(F)C(F)(F)C(N)=O [Octafluoroadipamide]; settings: 2200 nM; in DMSO
Protocol: as §1

[6] = compound: NC(=O)C(F)(F)C(F)(F)C(F)(F)C(F)(F)F [Nonafluoropentanamide]; settings: 2200 nM; in DMSO
Protocol: as §1

[7] = compound: NS(=O)(=O)C(F)(F)C(F)(F)C(F)(F)C(F)(F)C(F)(F)C(F)(F)F [Perfluorohexanesulfonamide]; settings: 2200 nM; in DMSO
Protocol: as §1

[8] = compound: O=C(O)C(F)(F)C(F)(F)C(=O)O [Tetrafluorosuccinic acid]; settings: 2200 nM; in DMSO
Protocol: as §1

[9] = compound: O=C(O)C(F)(F)C(F)(F)C(F)(F)C(F)(F)C(F)(F)C(F)(F)C(F)(F)C(F)(F)Cl [9-Chloro-perfluorononanoic acid]; settings: in DMSO
Protocol: as §1

[10] = compound: O=C(O)CCC(F)(F)C(F)(F)C(F)(F)C(F)(F)C(F)(F)F [2H,2H,3H,3H-Perfluorooctanoic acid]; settings: 2200 nM; in DMSO
Protocol: as §1

[11] = compound: O=S(=O)(O)C(F)(F)C(F)(F)OC(F)(F)C(F)(F)F [Perfluoro(2-ethoxyethane)sulfonic acid]; settings: 2200 nM; in DMSO
Protocol: as §1

[12] = compound: O=S(=O)(O)CCC(F)(F)C(F)(F)C(F)(F)C(F)(F)C(F)(F)C(F)(F)F [6:2 Fluorotelomer sulfonic acid]; settings: in DMSO
Protocol: as §1

[13] = compound: OC(C(F)(F)F)(C(F)(F)F)C(O)(C(F)(F)F)C(F)(F)F [Perfluoropinacol]; settings: in DMSO
Protocol: as §1

[14] = compound: OCCC(F)(F)C(F)(F)C(F)(F)C(F)(F)F [4:2 Fluorotelomer alcohol]; settings: 2200 nM; in DMSO
Protocol: as §1

Row | Test System | level (log10) ([1]; 740 nM) | level (log10) ([1]; 2200 nM) | level (log10) ([1]; 6700 nM) | level (log10) ([1]; 20000 nM) | level (log10) ([2]; 740 nM) | level (log10) ([2]; 2200 nM) | level (log10) [3] | level (log10) [4] | level (log10) [5] | level (log10) [6] | level (log10) [7] | level (log10) [8] | level (log10) ([9]; 2200 nM) | level (log10) ([9]; 6700 nM) | level (log10) ([9]; 20000 nM) | level (log10) [10] | level (log10) [11] | level (log10) ([12]; 2200 nM) | level (log10) ([12]; 6700 nM) | level (log10) ([12]; 20000 nM) | level (log10) ([12]; 60000 nM) | level (log10) ([13]; 2200 nM) | level (log10) ([13]; 6700 nM) | level (log10) ([13]; 20000 nM) | level (log10) [14]
1 | BF4T:CD106/VCAM-1 | -0.009 ± 0.072 | 0.0175 ± 0.037 | -0.012 ± 0.02 | 0.0325 ± 0.036 | -0.018 ± 0.025 | 0.0025 ± 0.015 | 0.0005 ± 0.013 | 0.0015 ± 0.043 | 0.013 ± 0.079 | -0.0055 ± 0.074 | 0.009 ± 0.042 | -0.0005 ± 0.011 | -0.047 ± 0.071 | -0.0485 ± 0.005 | -0.141 ± 0.011 | 0.036 ± 0.073 | 0.037 ± 0.027 | 0.0175 ± 0.071 | -0.0125 ± 0.04 | -0.0315 ± 0.0035 | -0.022 ± 0.057 | -0.001 ± 0.047 | -0.0455 ± 0.0021 | -0.096 | -0.0315 ± 0.12
2 | BE3C:MMP-1 | 0.0055 ± 0.023 | 0.001 ± 0.011 | 0.026 ± 0.0042 | 0.014 ± 0.0057 | -0.0005 ± 0.03 | 0.0095 ± 0.011 | 0.0355 ± 0.011 | -0.0135 ± 0.019 | 0.027 ± 0.062 | 0.0115 ± 0.015 | 0.0115 ± 0.00071 | 0.0115 ± 0.04 | 0 ± 0.048 | 0.083 ± 0.024 | 0.277 ± 0.0064 | 0 ± 0.0085 | 0.001 ± 0.011 | -0.01 ± 0.013 | -0.013 ± 0.017 | -0.0105 ± 0.018 | 0.078 ± 0.054 | 0.058 ± 0.051 | 0.0275 ± 0.0021 | -0.003 ± 0.0057 | -0.004 ± 0.079
3 | LPS:CD40 | 0.079 ± 0.1 | 0.0345 ± 0.11 | 0.07 ± 0.038 | -0.0015 ± 0.016 | 0.002 ± 0.014 | 0.024 ± 0.042 | -0.0075 ± 0.087 | 0.072 ± 0.059 | -0.0335 ± 0.016 | -0.032 ± 0.0028 | -0.008 ± 0.073 | -0.0205 ± 0.028 | 0.028 ± 0.054 | 0.02 ± 0.064 | 0.055 ± 0.0071 | 0.0295 ± 0.049 | 0.046 ± 0.047 | 0.031 ± 0.0071 | 0.025 ± 0.048 | 0.0165 ± 0.037 | -0.015 ± 0.024 | -0.022 ± 0.031 | -0.0285 ± 0.073 | -0.16 ± 0.03 | -0.0385 ± 0.0035
4 | LPS:M-CSF | 0.0385 ± 0.035 | 0.018 ± 0.02 | 0.022 ± 0.02 | 0.006 ± 0.0042 | -0.0085 ± 0.037 | -0.0185 ± 0.011 | 0.0355 ± 0.019 | -0.0095 ± 0.0078 | -0.032 ± 0.15 | -0.016 ± 0.052 | -0.016 ± 0.0014 | -0.0015 ± 0.039 | 0.0165 ± 0.011 | -0.0125 ± 0.0078 | 0.0485 ± 0.047 | 0.0215 ± 0.0092 | 0.0415 ± 0.005 | 0.0025 ± 0.026 | -0.0045 ± 0.015 | 0.004 ± 0.03 | 0.0485 ± 0.039 | 0.002 ± 0.0085 | 0.0135 ± 0.015 | -0.1085 ± 0.00071 | 0.008 ± 0.054
5 | HDF3CGF:TIMP-1 | -0.0015 ± 0.0064 | -0.024 ± 0.016 | -0.035 ± 0.0071 | -0.0345 ± 0.0078 | -0.0035 ± 0.061 | 0.003 ± 0.038 | -0.0055 ± 0.03 | -0.0195 ± 0.00071 | 0.036 ± 0.041 | 0.0035 ± 0.039 | -0.0175 ± 0.011 | 0.0075 ± 0.023 | -0.0065 ± 0.047 | -0.028 ± 0.027 | -0.0105 ± 0.056 | -0.015 ± 0.095 | 0.0295 ± 0.042 | -0.0275 ± 0.074 | 0.0225 ± 0.08 | -0.0045 ± 0.076 | 0.0175 ± 0.13 | 0.004 ± 0.0099 | 0.015 ± 0.027 | 0.0205 ± 0.032 | -0.0175 ± 0.018
